Values joined by “and” are separate entries in the source; they are usually repeats but may differ in a detail not shown here. Equal entries are not always repeated. Out of some 300,000 compounds screened, about 5,400 (1.8%) were called active. The inconclusive results got no clear call from the source; some entries with a clear call stand among them for comparison. Calls follow the shape of the full dose curve; tested in HEK293 cells. Where the call is inconclusive, the potency comes from a doubtful curve fit.
Assay: qHTS for inhibitors of binding or entry into cells for Marburg Virus
Conditions: Marburg virus pseudotyped entry inhibition, cell reporter; activity change, negative = inhibition: at 37.8 µM (top of the series) unless noted
% is scaled to controls: 0 for no effect and ±100 for the full control effect; potency is read from the fitted curve at half-maximal effect.

Row | SMILES | activity change, negative = inhibition | Potency
1 | O=C(O)C1=CC(c2ccc(Br)cc2)n2ncnc2N1 (stereo not given) | inactive: 1.51% [at 46.1 µM] | 
2 | Clc1ccc(-c2cnc3n2CCCCC3)cc1 |  | inconclusive: 35.5 µM [inhibitor, partial curve, poor fit]
3 | COc1ccc(C(C(=O)NC2CCCCC2)N(C(=O)c2snc(C(N)=O)c2N)c2ccccc2OC)cc1 (stereo not given) |  | inconclusive: 11.2 µM [inhibitor, partial curve, poor fit]
4 | Brc1ccc(C2=Nn3c(nnc3-c3n[nH]c4c3CCC4)SC2)cc1 |  | inconclusive: 35.5 µM [inhibitor, partial curve, poor fit]
5 | Cc1ccc(Cn2c(-c3nonc3N)nc3ccccc32)cc1 | inactive: -20.4% | 
6 | O=C(C1CCCCC1)N1CCN=C1SCc1cccc([N+](=O)[O-])c1 |  | inconclusive: 35.5 µM [inhibitor, single point]
7 | CCOC(=O)c1sc2nc3c(cc2c1N)COC(C)(CC)C3 (stereo not given) |  | inconclusive: 0.116 µM [activator, full curve, poor fit]
8 | O=C(Nc1ccc2nc(-c3ccco3)c(-c3ccco3)nc2c1)NC1CC1 | inactive: -0.64% | 
9 | Cc1onc(-c2c(F)cccc2Cl)c1C(=O)N(C)CCc1ccccn1 | inactive: 26.4% | 
10 | COc1ccc(NC(=O)c2nc(S(=O)(=O)Cc3ccc(C)cc3)ncc2Cl)cc1 |  | inconclusive: 3.98 µM [inhibitor, full curve, poor fit]
11 | O=C(Nc1cccc(S(=O)(=O)C(F)F)c1)c1ccc(S(=O)(=O)N2CCOCC2)cc1 |  | inactive and inconclusive: 1 µM [activator, full curve, poor fit]
12 | CCOC(=O)c1sc(NC(=O)CCN2CC(C)OC(C)C2)c(C(=O)OCC)c1C (stereo not given) | inactive: 4.26% | 
13 | Cc1onc(-c2c(F)cccc2Cl)c1C(=O)Nc1sc2c(c1C(N)=O)CCC2 |  | inconclusive: 5.17 µM [inhibitor, partial curve, poor fit]
14 | COc1ccc(C(=O)NC2(C(F)(F)F)NC(=O)N(CCCc3ccccc3)C2=O)cc1OC (stereo not given) |  | inconclusive: 11.2 µM [inhibitor, partial curve, poor fit]
15 | COc1ccc(OC)c(/C=C/C(=O)OCC(=O)Nc2cccc(Oc3ccccc3)c2)c1 | inactive: 0.391% | 
16 | N#C/C(=N\Nc1cccc(Cl)c1)C(=O)c1ccccc1 |  | inconclusive: 18.3 µM [inhibitor, partial curve, poor fit]
17 | Oc1ccc(-c2n[nH]c(C(F)(F)F)c2-c2ccccc2)c(O)c1 |  | inconclusive: 14.1 µM [inhibitor, single point]
18 | COc1ccccc1-c1nc(C#N)c(N2CCc3ccccc3C2)o1 |  | inconclusive: 29.1 µM [inhibitor, single point]
19 | COc1ccc(C(C)=O)cc1COC(=O)c1cc(C)nc2ccccc12 |  | inconclusive: 0.794 µM [inhibitor, full curve, poor fit]
20 | CC(Nc1nc(N2CCNCC2)nc2ccccc12)c1ccccc1 (stereo not given) |  | inconclusive: 2.82 µM [inhibitor, full curve, poor fit]
21 | CC(Oc1ccc(Cl)cc1)C(=O)Nc1sccc1C(N)=O (stereo not given) |  | inconclusive: 10 µM [inhibitor, partial curve]
22 | CC(/C=C1\SC(=S)N(CCCC(=O)Nc2ccc(C(=O)O)cc2)C1=O)=C\c1ccccc1 | inactive: -11.3% | 

Row | SMILES | activity change, negative = inhibition | Potency
23 | O=C(N/C(=C/c1ccc(Br)cc1)C(=O)N1CCCCC1)c1ccccc1F | inactive: -1.71% | 
24 | CCc1cccc(NC(=O)c2ccc(Br)o2)c1 |  | inconclusive: 35.5 µM [inhibitor, single point]
25 | CCOC(=O)c1cccc(NC(=O)Nc2cc(OC)ccc2OC)c1 |  | inconclusive: 29.1 µM [inhibitor, single point]
26 | COc1ccc2cc(CN(Cc3ccco3)C(c3nnnn3C3CCCCC3)C(C)C)c(=O)[nH]c2c1 (stereo not given) |  | inactive
27 | CC(=O)Oc1ccc(N(C(C)=O)S(=O)(=O)c2ccc(C)cc2)c2ccccc12 |  | inconclusive: 35.5 µM [inhibitor, single point]
28 | CCc1cccc(CC)c1NC(=O)CSc1nc2ccc(N3C(=O)C4C5C=CC(C5)C4C3=O)cc2s1 (stereo not given) |  | inconclusive: 35.5 µM [inhibitor, single point]
29 | O=C(c1ccc([N+](=O)[O-])o1)N1CCN(c2nc3c(Cl)cccc3s2)CC1 |  | inconclusive: 35.5 µM [inhibitor, single point]
30 | O=C(COc1ccccc1)Nc1ccccc1N1CCN(c2ccccc2)CC1 | inactive: -13.1% | 
31 | COc1ccccc1C1CCN(Cc2ccccc2Cl)CC1 |  | inconclusive: 0.794 µM [activator, single point]
32 | CCc1ccc(N=C2NC(=O)CS2)cc1 |  | inconclusive: 6.31 µM [inhibitor, single point]
33 | CC(=O)Nc1cccc(-c2csc(Nc3ccc(C)cn3)n2)c1 |  | inconclusive: 11.2 µM [inhibitor, single point]
34 | COc1ccc(COc2ncnc3ccc(Br)cc23)cc1F |  | inconclusive: 2.51 µM [inhibitor, full curve]
35 | O=C(c1cccc(-c2ccco2)c1)N1CCCC(N2CCN(c3ccc(F)cc3)CC2)C1 (stereo not given) | inactive: -31.4% | 
36 | CCOc1ccccc1N(CC(=O)NC1CCCCC1)C(=O)c1nsc(Cl)c1Cl |  | inconclusive: 10 µM [inhibitor, partial curve]
37 | CC(C(=O)NC1CCCC1)N(c1ccc(Oc2ccccc2)cc1)S(C)(=O)=O (stereo not given) |  | inconclusive: 5.62 µM [inhibitor, single point]
38 | CCC(=O)Nc1ccc(C(=O)CSc2nc3ccccc3cc2CC)cc1 |  | inconclusive: 18.3 µM [inhibitor, partial curve, poor fit]
39 | COc1ccccc1NC(=O)c1ccc(NC(=O)c2ccco2)cc1 |  | inconclusive: 10 µM [activator, partial curve, poor fit]
40 | CCS(=O)(=O)c1ccc(N=Nc2ccc(O)c3ncccc23)c(OC)c1 |  | inconclusive: 7.08 µM [inhibitor, partial curve, poor fit]
41 | Cc1[nH]nc(-c2ccc(O)cc2O)c1Oc1ccccc1 |  | inconclusive: 23.1 µM [inhibitor, partial curve, poor fit]
42 | N#C/C(=C\c1ccccc1)C(=O)N1CCC(C(N)=O)CC1 |  | inconclusive: 5.62 µM [inhibitor, single point]
43 | CC(=O)N/C(=N\c1nc(C)cc(C)n1)Nc1ccc(NC(C)=O)cc1 | inactive: -20.3% [at 46.1 µM] | 
44 | Fc1ccc(Cn2nnnc2C(c2ccc(Cl)cc2)N2CCSCC2)cc1 (stereo not given) |  | inconclusive: 16.4 µM [inhibitor, partial curve, poor fit]

Row | SMILES | activity change, negative = inhibition | Potency
45 | COc1ccc(CNC(=O)COC(=O)c2cccn2C)cc1 |  | inconclusive: 12.6 µM [activator, partial curve, poor fit]
46 | COc1ccccc1/C=C/C(=O)NCc1ccccn1 |  | inconclusive: 11.2 µM [activator, partial curve, poor fit]
47 | COc1ccc(OC)c(CNn2c(-c3cccc(C)c3)nc3ccccc3c2=O)c1 |  | inconclusive: 25.9 µM [inhibitor, single point]
48 | CCOC(=O)[C@]12C[C@@H]3CCN(C(=O)N(C(C)=O)[C@@H]1c1ccccc1)[C@@H]32 | inactive: -9.42% [at 14.2 µM] | 
49 | CC(/C=N\N1CCN(c2ccc(Cl)cc2)CC1)=C\c1ccccc1 |  | inconclusive: 0.112 µM [activator, full curve, poor fit]
50 | CN(CC12CC3CC(CC(C3)C1)C2)C(=O)c1ccco1 |  | inconclusive: 6.31 µM [inhibitor, single point]
51 | Cn1c2ccc(F)cc2c2nnc(SCCN3CCCCC3)nc21 | inactive: 0.937% [at 46.1 µM] | 
52 | CSc1ccccc1NC(=O)COC(=O)/C=C/c1ccco1 |  | inconclusive: 10 µM [activator, single point]
53 | CCn1c2ccccc2c2cc(NC(=O)CNCc3ccccc3OC)ccc21 |  | active: 5.62 µM
54 | Cc1ccsc1/C=N/NC(=O)C1C(=O)NCC1c1ccccc1 (stereo not given) | inactive: 7.81% [at 46.1 µM] | 
55 | Cc1ccc(N2C(=O)C(CC(=O)Nc3ccccc3)N(CCC3=CCCCC3)C2=O)cc1 (stereo not given) |  | inconclusive: 7.94 µM [inhibitor, partial curve]
56 | COc1ccc(S(=O)(=O)NC2CC(=O)N(c3ccccc3)C2)cc1C (stereo not given) | inactive: 3.06% | 
57 | CCOc1ccc(-c2csc(/C(C#N)=C\c3ccc(O)c([N+](=O)[O-])c3)n2)cc1 |  | inconclusive: 11.2 µM [inhibitor, partial curve, poor fit]
58 | O=C(CN(Cc1ccccc1)C(=O)CCC(=O)Nc1ccccn1)NCc1ccco1 |  | inconclusive: 0.398 µM [activator, full curve, poor fit]
59 | O=C(CCS(=O)(=O)c1nc(-c2cccs2)cc(C(F)(F)F)n1)Nc1cccc(O)c1 |  | inconclusive: 22.4 µM [inhibitor, single point]
60 | CCC(C)c1ccc(OCC(=O)Nc2ccc(Cl)cn2)cc1 (stereo not given) |  | inconclusive: 32.6 µM [inhibitor, partial curve, poor fit]
61 | CCCCOC(=O)Nc1nnc(CCOCC)s1 |  | inconclusive: 35.5 µM [activator, partial curve, poor fit]
62 | CC(=O)Nc1ccc(S(=O)(=O)NCC2CCC(C(=O)N3CCN(c4ccccn4)CC3)CC2)cc1 (stereo not given) |  | inconclusive: 6.31 µM [inhibitor, single point]
63 | CCC(C)c1ccccc1NC(=O)C(C)N(C)Cc1cccc(OC)c1 (stereo not given) |  | inconclusive: 11.2 µM [inhibitor, partial curve]
64 | O=C(CN1CCN(Cc2ccc3c(c2)OCO3)CC1)c1c[nH]c2ccccc12 |  | inconclusive: 22.4 µM [inhibitor, partial curve, poor fit]
65 | COc1ccc(-n2nc(C(=O)NCC(=O)N3CCN(c4ccccn4)CC3)c3ccccc3c2=O)cc1 |  | inconclusive: 32.6 µM [inhibitor, partial curve, poor fit]

Some of the entries above in a different format:
COc1ccc(C(C(=O)NC2CCCCC2)N(C(=O)c2snc(C(N)=O)c2N)c2ccccc2OC)cc1 (stereo not given)
  Potency: inconclusive: 11.2 µM [inhibitor, partial curve, poor fit]
COc1ccccc1-c1nc(C#N)c(N2CCc3ccccc3C2)o1
  Potency: inconclusive: 29.1 µM [inhibitor, single point]
CC(/C=N\N1CCN(c2ccc(Cl)cc2)CC1)=C\c1ccccc1
  Potency: inconclusive: 0.112 µM [activator, full curve, poor fit]
